# According to PubChem BioAssay AID1671190 (National Center for Advancing Translational Sciences (NCATS), 2021):
# Protein sequences, listed by entry. Tags and fused reporters are not part of them. Lines headed by an entry give the natural chain unless they say otherwise; changes in a name come on top.
# UniProt P18054: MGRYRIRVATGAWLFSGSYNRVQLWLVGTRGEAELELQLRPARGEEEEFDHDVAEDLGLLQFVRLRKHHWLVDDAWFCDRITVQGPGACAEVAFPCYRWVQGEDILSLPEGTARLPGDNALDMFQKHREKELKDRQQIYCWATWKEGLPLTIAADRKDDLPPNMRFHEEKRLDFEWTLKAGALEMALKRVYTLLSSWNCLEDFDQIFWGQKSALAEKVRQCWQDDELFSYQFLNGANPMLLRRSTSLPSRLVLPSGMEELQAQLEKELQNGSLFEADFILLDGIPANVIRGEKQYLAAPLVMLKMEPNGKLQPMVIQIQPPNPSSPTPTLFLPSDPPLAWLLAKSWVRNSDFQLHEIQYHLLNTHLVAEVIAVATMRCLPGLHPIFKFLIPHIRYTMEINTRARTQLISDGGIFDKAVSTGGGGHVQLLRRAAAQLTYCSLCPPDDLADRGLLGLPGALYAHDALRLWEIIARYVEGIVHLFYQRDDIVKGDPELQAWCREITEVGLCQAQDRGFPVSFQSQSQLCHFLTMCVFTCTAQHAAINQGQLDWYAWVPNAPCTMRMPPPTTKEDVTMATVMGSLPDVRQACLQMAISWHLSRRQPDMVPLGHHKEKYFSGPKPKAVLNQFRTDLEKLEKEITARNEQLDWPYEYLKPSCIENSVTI
# Hit rate of the full screen: of about 580,000 compounds, about 6,100 (1.1%) were called active. Inconclusive means that the source gave no clear call. Such entries were picked first, then a sample of the others. Calls follow the shape of the dose curve; as a rule, active = well fitted inhibition curve with a large enough effect; inconclusive = small, poorly fitted or top-dose-only effect, or another doubt; inactive = no such curve, though single readings can be large or run the other way. Where the call is inconclusive, the potency comes from a doubtful curve fit.
# Molecular target: Polyunsaturated fatty acid lipoxygenase ALOX12 (Homo sapiens) (UniProt P18054)
# Experiment: Primary qHTS assay for inhibitors of human arachidonate 12S-lipoxygenase (ALOX12): Round 2
# Settings: purified 12hLO, xylenol orange hydroperoxide absorbance; activity change, negative = inhibition: at 108 µM (top of the series) unless noted
# Summary of the method: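 Hydroperoxide product was detected by ferrous iron/xylenol orange as the 573 to 405 nm absorbance ratio. Arachidonic acid at 40 uM (final) was turned over for 30 min at room temperature by 150 nM human 12hLO, pH 7.0 Hepes buffer, after 15 min compound preincubation.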
# % is scaled to controls: 0 for no effect and ±100 for the full control effect; potency is read from the fitted curve at half-maximal effect.
SMILES,Potency,"activity change, negative = inhibition"
Cc1c(Cl)cccc1NC(=O)CSc1ncc(S(=O)(=O)c2ccc(C(C)C)cc2)c(=O)[nH]1,"inconclusive: 50.1 µM [inhibitor, partial curve, poor fit]",
Cc1ccc(S(=O)(=O)CCC(=O)Nc2sccc2C(N)=O)cc1,inactive,
CN(Cc1ccccc1)Cc1cc(C[C@H]2CNCC[C@H]2CC(=O)NCc2cccs2)no1,"inconclusive: 31.6 µM [inhibitor, partial curve, poor fit]",
COc1cccc(C(O)c2nc(-c3cc4ccccc4o3)cs2)c1 (stereo not drawn),inactive,
COC(=O)[C@]1(Sc2ccc(C)cc2)CC(=O)N[C@@H]1c1ccccc1,"inconclusive: 56.2 µM [inhibitor, partial curve, poor fit]",
c1cc(Nc2cccc3nccnc23)c2nccnc2c1,inactive,
COc1cc(C)c(NC(=O)CC2CC3CCC2C3)cc1OC (stereo not drawn),inactive,
COc1ccc(CN2C(=O)C(n3cccc3)c3cc(F)ccc32)cc1 (stereo not drawn),"inconclusive: 79.4 µM [inhibitor, single point]",
CCOC(=O)c1c(C)[nH]c(C)c1S(=O)(=O)N1CCCC(C(=O)Nc2ccc(C)c(N(C)C)c2)C1 (stereo not drawn),"inconclusive: 141 µM [inhibitor, partial curve, poor fit]",
Cc1cc(Sc2nc(NC(C)C)nc(NC(C)C)n2)nc(Cl)n1,"inconclusive: 126 µM [inhibitor, single point]",
O=C(Cc1c[nH]c2ncc(-c3ccsc3)cc12)N1CCOCC1,inactive,
Cc1noc([C@@H]2C[C@H](NS(=O)(=O)c3cccc4cccnc34)CN2C)n1,inactive,
COC(=O)c1cccc(C#CC(NP(=O)(c2ccccc2)c2ccccc2)c2ccccc2)c1 (stereo not drawn),"inconclusive: 44.7 µM [inhibitor, partial curve, poor fit]",
CCCN(C)C(=O)c1csc(N2CCN(c3cccc(Cl)c3)CC2)n1,inactive,
CCCC(=O)N(CCN1CCOCC1)c1nc2ccc(OCC)cc2s1,"inconclusive: 70.8 µM [inhibitor, partial curve, poor fit]",
CCCCCCN1C[C@@H](n2cc(C3CC3)nn2)[C@H](O)C[C@@H]1c1ccc(Cl)cc1,"inconclusive: 79.4 µM [inhibitor, single point]",
CC1CCc2nc3ccccc3c(C(=O)Nc3ccc(F)c(F)c3)c2C1 (stereo not drawn),"inconclusive: 50.1 µM [inhibitor, single point]",
COc1ccc(S(=O)(=O)N2CCCN(CC(=O)C(C)(C)C)CC2)cc1,"inconclusive: 2.24 µM [inhibitor, full curve, poor fit]",
Cc1cc(C(=O)COC(=O)c2ccc(NC(=O)CC#N)cc2)c(C)n1CCc1ccc(F)cc1,inactive,
COc1cc(NS(=O)(=O)c2ccc(NC(=S)NC(=O)/C=C/c3ccc(OC)c(OC)c3)cc2)ncn1,inactive,
COc1ccc(CCNS(=O)(=O)c2ccc(F)c(C(=O)Nc3ccc(Cl)cc3)c2)cc1OC,inactive,
OC(c1cc(Cl)cc(Cl)c1)c1ncc(-c2cccc(F)c2)[nH]1 (stereo not drawn),"inconclusive: 126 µM [inhibitor, single point]",
Cc1nnc(SCC(=O)N2CCN(c3ncccn3)CC2)n1C1CC1,"inconclusive: 4.47 µM [inhibitor, full curve, poor fit]",
Cc1ccc(-c2nnc(Nc3ccc(Cl)c(Cl)c3)c3ccccc23)cc1S(=O)(=O)N(C)C,inactive,
CC(Oc1ccc(Cl)cc1Cl)C(=O)Nc1ccc(N2CCN(C)CC2)nc1 (stereo not drawn),"inconclusive: 89.1 µM [inhibitor, partial curve, poor fit]",

SMILES,Potency,"activity change, negative = inhibition"
C/C=C/c1ccc(OCCCCN2CC(C)CC(C)C2)c(OC)c1 (stereo not drawn),"inconclusive: 0.562 µM [inhibitor, full curve, poor fit]",
CC(C)NC(=O)COC(=O)c1c[nH]c2ccccc12,"inconclusive: 112 µM [inhibitor, single point]",
O=C(CNC(=O)C1COc2ccccc2O1)N/N=C/c1ccc(O)cc1O (stereo not drawn),inactive,
CCN1CC(CN(C)Cc2nc(C3CC3)no2)Oc2ccccc21 (stereo not drawn),inactive,
CCCOc1ccccc1NC(=O)Cc1nn(C)c(=O)c2ccccc12,"inconclusive: 5.62 µM [inhibitor, full curve, poor fit]",
Cn1nc(CC(=O)Nc2ccc(Cl)cc2Cl)c2ccccc2c1=O,inactive,
CCOc1ccc(N=c2scc(-c3ccc(OC)cc3)n2CCO)cc1,"inconclusive: 70.8 µM [inhibitor, partial curve, poor fit]",
O=C(Cc1ccc(Br)cc1)c1ccc(O)cc1O,"inconclusive: 50.1 µM [inhibitor, partial curve, poor fit]",
CN(C)c1ccc(C(=O)/C=C/c2ccccn2)cc1,"inconclusive: 56.2 µM [inhibitor, partial curve, poor fit]",
COc1cccc(-c2nc3nc(C)cc(C)n3c2NC2CCCC2)c1,inactive,
COc1ccc(-c2oc3ccc(N4CCOCC4)cc3c2/C=C/c2ccc(OC)c(OC)c2)cc1,inactive,
O=c1c(-c2ccccc2)nnc2sc(-c3ccc(Cl)cc3)nn12,inactive,
O=C1NCCCC1C(=O)N/N=C/c1cc([N+](=O)[O-])ccc1O (stereo not drawn),inactive,
CC(=O)c1cccc(NC(=O)CSc2nnnn2C2CCCC2)c1,"inconclusive: 6.31 µM [inhibitor, full curve, poor fit]",
CN(C)/C=C/C(=O)c1cnc(-c2ccccc2Cl)s1,active: 8.91 µM,
CC(C)C(C)NC(=O)COc1ncnc2ccc(Br)cc12 (stereo not drawn),"inconclusive: 89.1 µM [inhibitor, single point]",
S=c1[nH]nc2nnc3ccccc3n12,"inconclusive: 50.1 µM [inhibitor, partial curve, poor fit]",
CC(Sc1n[nH]c(-c2ccccc2)n1)C(=O)Nc1cccc(C(F)(F)F)c1 (stereo not drawn),"inconclusive: 44.7 µM [inhibitor, partial curve, poor fit]",
CN=C(NC)NCc1ccc(C(=O)OC)cc1,active: 25.1 µM,
COc1ccc(NC(=S)N2CCC(Cc3ccccc3)CC2)cc1OC,"inconclusive: 56.2 µM [inhibitor, partial curve, poor fit]",
CC(Oc1ccc(Cl)cc1Cl)C(=O)Nc1ccncc1 (stereo not drawn),inactive,
O=C(NCC12CCC=C1N(CC1CC1)C(=O)CC2)Nc1cccc(F)c1 (stereo not drawn),inactive,
CC(C)(C)C1CCC(NC(=O)c2ccncc2)CC1 (stereo not drawn),"inconclusive: 31.6 µM [inhibitor, partial curve, poor fit]",
O=C1/C(=C/c2ccccc2)SC(=S)N1CC(=O)N1CCCCC1c1cccnc1 (stereo not drawn),inactive,
COc1cccc(/C=N/NC(=O)c2cc(-c3cccn3C)n[nH]2)c1,inactive,

SMILES,Potency,"activity change, negative = inhibition"
CC(=O)NC(Cc1ccccc1)C(=O)OCC(=O)c1ccc(F)cc1 (stereo not drawn),inactive,
CCOc1cc(NC(=S)NCCCN2CCOCC2)c(OCC)cc1NC(=O)c1ccco1,,inconclusive: -31.3% [inhibitor]
O=C(NCCCn1ccnc1)Nc1ccc2c(c1)OCO2,inactive,
Cc1nc(NC(=O)CSc2nnc(C3CC3)n2C)sc1C,"inconclusive: 56.2 µM [inhibitor, partial curve, poor fit]",
CCOC(=O)c1cc(C#N)c(=S)[nH]c1C,"inconclusive: 50.1 µM [inhibitor, partial curve, poor fit]",
CCOc1ccccc1Nc1nc(-c2ccc(C)cc2)c(CC(=O)O)s1,"inconclusive: 39.8 µM [inhibitor, full curve, poor fit]",
COc1cccc(C(=O)c2sc(Nc3ccc(Cl)cc3C)nc2N)c1,"inconclusive: 17.8 µM [inhibitor, single point]",
Cc1cccc(NS(=O)(=O)c2cccc(C(=O)OCC(=O)c3ccc[nH]3)c2)c1,inactive,
O=c1[nH]c2ccc(NCc3ccc(-c4ccc(Cl)cc4)o3)cc2[nH]1,"inconclusive: 11.2 µM [inhibitor, full curve, poor fit]",
Cc1nn(-c2ccccc2)c(C)c1NC(=O)COC(=O)c1cc(Cl)ccc1O,"inconclusive: 100 µM [inhibitor, partial curve, poor fit]",
O=C(CNC(=O)c1ccco1)OCC(=O)c1ccc2c(c1)CCCC2,"inconclusive: 17.8 µM [inhibitor, partial curve, poor fit]",
Nc1nccnc1C(=O)NCc1ccc(Cl)s1,inactive,
CCOc1ccccc1Oc1coc2cc(OCC(=O)O)ccc2c1=O,inactive,
NC(=O)COc1ccc(/C=N/NS(=O)(=O)c2ccccc2)cc1,"inconclusive: 112 µM [inhibitor, single point]",
CCOc1ccc(S(=O)(=O)N(C(=O)c2ccco2)c2cc3sc(=O)oc3c3ccccc23)cc1,active: 31.6 µM,
O=C(NCc1ccccn1)c1cccc(Cl)c1,inactive,
O=C(Cc1c[nH]c2ccccc12)N1CCN(S(=O)(=O)c2ccc(F)cc2)CC1,"inconclusive: 89.1 µM [inhibitor, partial curve, poor fit]",
CN(CCc1ccccc1)c1cc2c(c3c1ccn3C)C1CCC2C1 (stereo not drawn),active: 44.7 µM,
COc1ccc(OC)c(NC(=O)C(C)n2nc(C)c3c(C)n(-c4ccccc4)nc3c2=O)c1 (stereo not drawn),"inconclusive: 100 µM [inhibitor, partial curve, poor fit]",
COc1ccccc1NC(=O)NCc1ccc(C)n1C,inactive,
CCCn1c(SCC(=O)NCc2cccs2)nc2c1c(=O)n(C)c(=O)n2C,"inconclusive: 15.8 µM [inhibitor, partial curve, poor fit]",
O=C(C(Cl)Cl)N1c2ccccc2OCC1c1ccccc1 (stereo not drawn),inactive,
CCS(=O)(=O)N1CC2(CN(C(=O)Nc3c(C)noc3C)[C@@H](CO)c3[nH]c4cc(OC)ccc4c32)C1,"inconclusive: 126 µM [inhibitor, partial curve, poor fit]",

# Single records, from the list above:
# OC(c1cc(Cl)cc(Cl)c1)c1ncc(-c2cccc(F)c2)[nH]1 (stereo not drawn) as listed: Potency: inconclusive: 126 µM [inhibitor, single point]
# Cc1cc(C(=O)COC(=O)c2ccc(NC(=O)CC#N)cc2)c(C)n1CCc1ccc(F)cc1 as listed: Potency: inactive
# CC(Sc1n[nH]c(-c2ccccc2)n1)C(=O)Nc1cccc(C(F)(F)F)c1 (stereo not drawn) as listed: Potency: inconclusive: 44.7 µM [inhibitor, partial curve, poor fit]
# Cc1nc(NC(=O)CSc2nnc(C3CC3)n2C)sc1C as listed: Potency: inconclusive: 56.2 µM [inhibitor, partial curve, poor fit]
